Results on one substance are retold here after publication PMC7418987, “NHD2-15, a novel antagonist of Growth Factor Receptor-Bound Protein-2 (GRB2), inhibits leukemic proliferation” (PLoS ONE, 2020).

Sequences of proteins named here, by UniProt entry; tags and fusion partners are left off.
UniProt P62993: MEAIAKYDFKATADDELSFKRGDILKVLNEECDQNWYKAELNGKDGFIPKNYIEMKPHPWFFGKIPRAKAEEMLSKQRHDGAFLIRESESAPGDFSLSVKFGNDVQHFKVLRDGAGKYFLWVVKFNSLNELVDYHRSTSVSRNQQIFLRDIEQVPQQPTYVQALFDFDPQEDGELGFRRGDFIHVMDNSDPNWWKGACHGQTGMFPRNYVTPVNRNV

In the assay the target is T1, GRB2 SH2 domain-binding peptide (biotin-Aha-PSpYVNVQN).
T1 sequence (peptide, phosphotyrosine (pY, third residue of the peptide); biotin-Aha on the N-terminus): PSYVNVQN
Nature of the assay: ELISA; competition ELISA: biotinylated peptide (100 nM, TBS pH 7.5) on streptavidin-coated plates; GST-GRB2 20 nM with competitor (NHD2-15 or free peptide) in SuperBlock, 1 h at 37°C; detected with anti-GST-HRP, absorbance at 450 nm; both purified. (An ELISA detects its analyte on a solid surface through an enzyme-linked reagent.)

These are yes or no findings as the source states them, for the method shown. Some binding calls cover weakened binding; strength is not graded here.

In the case of “GST-GRB2 (growth factor receptor-bound protein-2) (from UniProt P62993 1-217)”, the binding result is listed as “binds”.
